Measured values as given in patent US20050208036A1, “Methods for treating or preventing GVHD” (University of North Carolina at Chapel Hill, priority 2003, published 2005).
At least one compound was matched to its structure with a doubt left.

Test system: bm12 mice
Assay: GVHD lethality after transfer of MLR cells into sublethally irradiated MHC class II disparate recipients
Assay type: in vivo, mouse
Conditions: 6 μM and 10 μM groups together
Method: A bulk MLR was prepared by combining donor CD4^+ T cells obtained from C57BL/6 (H-2^b) mice (National Institutes of Health, Bethesda, Md., U.S.A.) in a 1:1 ratio with T cell-depleted, irradiated splenocytes obtained from bm12 (H-2^bm12), MHC class II disparate mice (The Jackson Laboratory, Bar Harbor, Me., U.S.A.). An anti-CD40L monoclonal antibody (hybridoma MR1, hamster IgG), obtained by culturing the hybridoma in 10% FBS/DMEM in an Accusyst Jr. hollow fiber bioreactor (Cellex Biosciences, Minneapolis, Minn., U.S.A.), was added to the bulk MLR culture and the cells were incubated for 7-10 days. Proliferative responses of the T cells to alloantigen were determined on days 2, 4, 5, 6, and 7 by measuring ^3H-thymidine incorporation into newly synthesized DNA. The antibody removed from the cultures by washing three times with 2% FBS/PBS, and aliquots of the cells (0.3×10^5, 10^5, and 3×10^5 cells) were administered in 0.5 mL DMEM by tail vein injection to bm12 mice subjected to a sublethal dose (6.0 Gy) of total body irradiation. […] The mice were monitored for GVHD lethality, weight changes, and packed cell volume (PCV). Cells remaining from the primary MLR were mixed with fresh bm12 splenocytes for a secondary MLR, and proliferative responses to allogen were measured on days 1 through 5. […]

O=C(Nc1cc(Cl)cc2c1[nH]c1cnccc12)c1cccnc1 [PS1145]
Long term survival (>90 days): 14/18 (78%)
